No constants are given. Whether binding was seen depends on the method and setting. Some results given as binding are weak or reduced against the parent protein; the word gives no strength.
What was measured:
[1] = biological target: rhesus CD40 on blood B cells (CD20+ cells of rhesus PBMCs) (rhesus macaque) (UniProt F6SNI1); test: flow cytometry on PBMCs, fluorochrome-conjugated 2C10 (Figure 2a)
recombinant human CD40 [2] = biological target: T1, recombinant human CD40 (human, UniProt P25942 21-120, limits assumed); test: ELISA, recombinant CD40 adsorbed to plates, goat anti-mouse IgG-HRP
T1 construct: biotinylated there; also called hCD40; purified CD40

Sequences of proteins named here, by UniProt entry; tags and fusion partners are left off. A change or cut given only in a name is not applied to a line headed by its entry. A line that says so, or that is headed by a name, gives the form on record, which may keep a tag or linker.
rhesus CD40 on blood B cells (CD20+ cells of rhesus PBMCs) (F6SNI1, form named): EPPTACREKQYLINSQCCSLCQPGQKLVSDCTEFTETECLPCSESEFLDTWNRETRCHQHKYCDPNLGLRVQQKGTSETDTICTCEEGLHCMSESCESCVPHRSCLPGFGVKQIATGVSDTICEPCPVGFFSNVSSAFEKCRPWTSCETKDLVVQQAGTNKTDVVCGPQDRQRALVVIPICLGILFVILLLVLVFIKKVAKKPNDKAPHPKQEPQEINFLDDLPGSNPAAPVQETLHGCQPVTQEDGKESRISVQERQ
UniProt P25942: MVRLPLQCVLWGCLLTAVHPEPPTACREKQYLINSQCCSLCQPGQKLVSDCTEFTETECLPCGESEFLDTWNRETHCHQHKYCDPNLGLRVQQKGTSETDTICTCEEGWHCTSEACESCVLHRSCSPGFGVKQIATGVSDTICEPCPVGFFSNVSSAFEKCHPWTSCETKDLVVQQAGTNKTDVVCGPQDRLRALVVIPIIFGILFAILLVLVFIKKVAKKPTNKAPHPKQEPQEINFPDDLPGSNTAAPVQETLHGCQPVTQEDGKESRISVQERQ

[3] = biological target: recombinant rhesus CD40 (rhesus macaque (M. mulatta)); test: as above
[4] = biological target: rhesus CD40 on blood B cells (CD20+ cells of rhesus PBMCs) (rhesus macaque) (UniProt F6SNI1); test: flow cytometry on PBMCs with fluorochrome-conjugated 2C10 and an anti-CD20 antibody
recombinant human CD40 [5] = biological target: T1, recombinant human CD40; test: ELISA, CD40 adsorbed to plates, goat anti-mouse IgG-HRP (Figure 2b)
[6] = biological target: recombinant rhesus CD40 (rhesus macaque (M. mulatta)); test: as above
[7] = biological target: rhesus CD40 fusion protein (printed 'CD40-NMP fusion') used on the BIACore 3000 (rhesus); test: BIACore 3000, h2C10 immobilized on a CM5 chip by amine coupling, CD40 fusion as analyte (Figure 16)
[8] = biological target: human CD40 fusion protein (printed 'CD40-NMP fusion') used on the BIACore 3000 (human) (UniProt P25942); test: as above
[9] = biological target: rhesus CD40 on blood B cells (CD20+ cells of rhesus PBMCs) (rhesus macaque) (UniProt F6SNI1); test: receptor occupancy by flow cytometry on blood B cells of treated rhesus monkeys (Figure 19)
[10] = biological target: rhesus CD40 on blood B cells (CD20+ cells of rhesus PBMCs) (rhesus macaque) (UniProt F6SNI1); test: receptor occupancy by flow cytometry on blood B cells of treated rhesus monkeys

Measured: binding

B1: 2C10 (murine anti-CD40 antibody) (antibody, V domains shown)
VH: QVQLQQSGAELAKPGASVKMSCKASGYTFTNYWMHWVKQRPGQGLEWIGYINPSNDYTKYNQKFKDKATLTADKSSNTAYMQLGSLTSEDSAVYYCARQGFPYWGQGTLVTVSA
VL: QIVLTQSPAIMSASPGEKVTMTCSASSSVSYMHWYHQRSGTSPKRWIYDTSKLASGVPARFSGSGSGTSYSLTISSMEAEDAATYYCHQLSSDPFTFGSGTKLEIK
binds: [1] | recombinant human CD40 [2] | [3] | [4] | recombinant human CD40 [5] | [6]

B2: humanized 2C10 antibody, Clone 2.189.2 (2C10_h3 + 2C10_l2) (antibody, V domains shown)
VH: QVQLVQSGAEVKKPGASVKVSCKASGYTFTNYWMHWVRQAPGQRLEWIGYINPSNDYTKYNQKFKDRATLTADKSANTAYMELSSLRSEDTAVYYCARQGFPYWGQGTLVTVSS
VL: EIVLTQSPATLSLSPGERATLSCSASSSVSYMHWYQQKPGQAPRRWIYDTSKLASGVPARFSGSGSGTDYTLTISSLEPEDFAVYYCHQLSSDPFTFGGGTKVEIK
notes: also called h2C10; mAb 2.189.2
binds: [7] | [8]

B3: humanized 2C10 (h2C10) in the stabilized IgG4 format (antibody, V domains shown)
VH: QVQLVQSGAEVKKPGASVKVSCKASGYTFTNYWMHWVRQAPGQRLEWIGYINPSNDYTKYNQKFKDRATLTADKSANTAYMELSSLRSEDTAVYYCARQGFPYWGQGTLVTVSS
VL: EIVLTQSPATLSLSPGERATLSCSASSSVSYMHWYQQKPGQAPRRWIYDTSKLASGVPARFSGSGSGTDYTLTISSLEPEDFAVYYCHQLSSDPFTFGGGTKVEIKR
binds: [9] | [10]

Reference: patent EP4818209A2 (Primatope Therapeutics Inc., dated 2026)
